Results published in doi:10.1101/2020.12.13.422588.
No constants are given. Whether binding was seen depends on the method and setting. Some binding calls cover weakened binding; strength is not graded here. Blank lines part the entries; values can stand above or below the binder they belong to.

Columns and labels:
Assay in all cases: two-hybrid
[1] = molecular target: T1, full-length SpbK (Bacillus subtilis) (UniProt P96648)
T1 sequence: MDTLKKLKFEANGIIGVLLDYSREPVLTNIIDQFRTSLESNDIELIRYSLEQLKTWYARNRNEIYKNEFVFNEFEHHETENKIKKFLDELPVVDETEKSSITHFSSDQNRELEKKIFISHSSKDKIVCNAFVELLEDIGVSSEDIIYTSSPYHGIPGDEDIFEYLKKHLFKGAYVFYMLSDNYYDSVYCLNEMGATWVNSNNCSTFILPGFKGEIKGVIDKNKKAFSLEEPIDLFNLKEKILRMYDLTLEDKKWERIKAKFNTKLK

[2] = molecular target: T2, SpbK amino acids 97-266 (TIR domain) (Bacillus subtilis) (UniProt P96648)
T2 sequence: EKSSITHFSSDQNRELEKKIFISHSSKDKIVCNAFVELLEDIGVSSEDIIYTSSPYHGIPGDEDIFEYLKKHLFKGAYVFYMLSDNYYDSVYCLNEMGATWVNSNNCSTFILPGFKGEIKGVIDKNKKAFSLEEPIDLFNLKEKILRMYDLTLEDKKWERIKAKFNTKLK

[3] = molecular target: SpbK amino acids 1-104 (N-terminus) (Bacillus subtilis) (UniProt P96648)

B3: SpbK amino acids 97-266 (TIR domain) (domain or fragment, UniProt P96648 97-266)
chain: T2 sequence
binding [1]: binds | binding [2]: binds

B4: SpbK amino acids 1-104 (N-terminus) (domain or fragment, UniProt P96648 1-104)
chain: MDTLKKLKFEANGIIGVLLDYSREPVLTNIIDQFRTSLESNDIELIRYSLEQLKTWYARNRNEIYKNEFVFNEFEHHETENKIKKFLDELPVVDETEKSSITHF
binding [1]: no binding | binding [3]: no binding | binding [2]: no binding

Other lines, results leading:

binding [1]: no binding
B1: YonE (protein, UniProt O31953 1-506)
chain: MVTLNKVDIESEEYKQMLNDYSTYTSTFASGFISNMFSNGIVTEIEAEQLKNYFSNPDEFQEEIEDLAQYFYISTAEIHQLFELIEALPTLNYKIDSFNKVKSSDKHISLLNKSLHKVKHKRLTRDLLKQVATAGTLVGIWLGDAKSPYPFIFDEIKYVFPSFRRNGDWVCVVDMELFTKYKDDQRNELLKSLSPYIKQSDYENFMKDREKYRFKELPQERTFPLRTGTLKRNQGLGTSWVTPGLYDVLHKKKLKDVERSIANKIINAVAVLTIGTDKGNGEYTNMKLPKAVKQKIHGGVKTALEKNQKDGVTVVSIPDFADINFPDVKADGLDGAKFDHINSDIQSAYGLSGSLLNGDGGNYATSSLNLDTFYKRIGVLMEDIEQEVYQKLFNLVLPAAQKDNYYMNYDKDKPLTLKEKMDILIKLNDKGWSIKHVVDNLAGVSWESYLEQTLYETEELKLQEKIRPYQTSYTFTGNEVGRPNEGNKNNDNTVKSATSNGNDNPI

binding [1]: binds
B2: full-length SpbK (protein, UniProt P96648 1-266)
chain: T1 sequence
